These are yes or no findings as the source states them, for the method shown. Some entries that bind do so weakly or less than the wild type.
Biological target: T1, TolAIII (TolA domain III, residues 296-421), wild type (E. coli) (UniProt P19934)
T1 sequence: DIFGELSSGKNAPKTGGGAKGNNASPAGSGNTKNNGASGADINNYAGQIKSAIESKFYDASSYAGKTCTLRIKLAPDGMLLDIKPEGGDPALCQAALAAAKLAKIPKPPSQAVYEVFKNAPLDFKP
Assay: SPR; ~500 RU TolAIII WT, D418P or K420P amine-coupled to CM5; ColN-T, ColA-T or G3p-N1 at 5 µM injected at 30 µl/min for 120 s (up to 250 µM, data not shown); HEPES-EP, 25 °C; blank surface subtracted; both purified

B1: Colicin N translocation domain, ColN-T (ColN 1-90) (domain or fragment, UniProt P08083 1-90)
chain: MGSNGADNAHNNAFGGGKNPGIGNTSGAGSNGSASSNRGNSNGWSWSNKPHKNDGFHSDGSYHITFHGDNNSKPKPGGNSGNRGNNGDGA
**Q.** B1 was tested. Which binding did it give?
**A.** binds

— article PMC4339652
